Measured values taken from PMC6698652, “Boundaries of eliminated heterochromatin of Tetrahymena are positioned by the DNA-binding protein Ltl1”.
Construct, isoform or probe ends are uncertain for at least one entry. At least one verdict rests on a figure or table, not on a statement of the authors. Where a protein sequence is shown, tags need not be part of it.

Molecular target: T1, MBP-Ltl1 (Tetrahymena thermophila) (UniProt I7MGR7)
T1 sequence (looked up, limits assumed): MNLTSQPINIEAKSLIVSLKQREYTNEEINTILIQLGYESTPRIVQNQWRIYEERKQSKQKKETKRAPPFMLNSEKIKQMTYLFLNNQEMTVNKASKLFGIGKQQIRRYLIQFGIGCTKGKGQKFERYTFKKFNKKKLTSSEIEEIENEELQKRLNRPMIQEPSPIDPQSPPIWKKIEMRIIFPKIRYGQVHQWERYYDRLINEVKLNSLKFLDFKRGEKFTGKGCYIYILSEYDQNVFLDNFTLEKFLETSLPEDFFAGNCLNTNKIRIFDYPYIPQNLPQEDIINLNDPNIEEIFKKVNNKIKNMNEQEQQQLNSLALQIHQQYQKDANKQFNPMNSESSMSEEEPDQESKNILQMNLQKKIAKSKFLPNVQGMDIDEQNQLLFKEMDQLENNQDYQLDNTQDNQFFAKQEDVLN
Assay: EMSA
Conditions: EMSA as in Carle et al. (ref 20), binding buffer and temperature not given, probes annealed in 10 mM Tris pH 7.5, 5% glycerol, 100 mM KCl, recombinant protein, label: 5' 32P

[1] = 5 uM poly-dGdC competitor, Kd not significantly altered

Sequence	binding result [1]	binding result
TTATTTGATTAATTAATTTTATTTACGGTAAAGGTTTATATATTAAGGCCACAATATAC (double strand) [D IES left flank -30/-88 ds (IESD_EMSA_probe1)]	binds	
GAAATTAATATAATTATAATTTTAAACAGTGTAAAACCCAAAAAGCTA (double strand) [R IES left flank -40/-88 ds (R_IES_EMSA_probe2)]	binds	
TTTATTAATCAAAAAGGGGGTAAATAATAA (double strand) [M IES left flank ds]		binds
